The source of these data is publication PMC8664295.

Protein sequences, listed by entry. Tags and fused reporters are not part of them. Residues count along the entry.
UniProt P46531, residues 1754-2555: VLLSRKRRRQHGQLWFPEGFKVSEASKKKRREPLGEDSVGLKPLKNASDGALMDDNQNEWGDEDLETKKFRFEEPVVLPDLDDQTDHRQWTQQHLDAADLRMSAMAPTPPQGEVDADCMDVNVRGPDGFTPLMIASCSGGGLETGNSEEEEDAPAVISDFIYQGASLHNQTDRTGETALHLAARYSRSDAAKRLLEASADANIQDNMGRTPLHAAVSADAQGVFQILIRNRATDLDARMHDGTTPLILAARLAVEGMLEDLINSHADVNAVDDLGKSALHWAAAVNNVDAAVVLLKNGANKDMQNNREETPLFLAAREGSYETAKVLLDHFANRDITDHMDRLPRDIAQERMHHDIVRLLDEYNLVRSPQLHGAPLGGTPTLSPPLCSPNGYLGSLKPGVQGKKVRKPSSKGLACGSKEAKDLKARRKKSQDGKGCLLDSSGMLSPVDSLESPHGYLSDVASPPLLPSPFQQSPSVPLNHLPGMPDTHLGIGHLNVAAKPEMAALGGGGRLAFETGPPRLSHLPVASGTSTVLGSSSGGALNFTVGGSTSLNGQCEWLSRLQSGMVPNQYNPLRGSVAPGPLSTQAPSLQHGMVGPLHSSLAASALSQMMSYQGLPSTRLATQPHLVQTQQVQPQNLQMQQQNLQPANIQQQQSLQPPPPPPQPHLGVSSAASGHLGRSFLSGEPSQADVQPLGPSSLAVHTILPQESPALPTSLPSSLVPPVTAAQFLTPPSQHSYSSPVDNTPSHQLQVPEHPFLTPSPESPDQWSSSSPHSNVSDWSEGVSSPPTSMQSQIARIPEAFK
UniProt P08151: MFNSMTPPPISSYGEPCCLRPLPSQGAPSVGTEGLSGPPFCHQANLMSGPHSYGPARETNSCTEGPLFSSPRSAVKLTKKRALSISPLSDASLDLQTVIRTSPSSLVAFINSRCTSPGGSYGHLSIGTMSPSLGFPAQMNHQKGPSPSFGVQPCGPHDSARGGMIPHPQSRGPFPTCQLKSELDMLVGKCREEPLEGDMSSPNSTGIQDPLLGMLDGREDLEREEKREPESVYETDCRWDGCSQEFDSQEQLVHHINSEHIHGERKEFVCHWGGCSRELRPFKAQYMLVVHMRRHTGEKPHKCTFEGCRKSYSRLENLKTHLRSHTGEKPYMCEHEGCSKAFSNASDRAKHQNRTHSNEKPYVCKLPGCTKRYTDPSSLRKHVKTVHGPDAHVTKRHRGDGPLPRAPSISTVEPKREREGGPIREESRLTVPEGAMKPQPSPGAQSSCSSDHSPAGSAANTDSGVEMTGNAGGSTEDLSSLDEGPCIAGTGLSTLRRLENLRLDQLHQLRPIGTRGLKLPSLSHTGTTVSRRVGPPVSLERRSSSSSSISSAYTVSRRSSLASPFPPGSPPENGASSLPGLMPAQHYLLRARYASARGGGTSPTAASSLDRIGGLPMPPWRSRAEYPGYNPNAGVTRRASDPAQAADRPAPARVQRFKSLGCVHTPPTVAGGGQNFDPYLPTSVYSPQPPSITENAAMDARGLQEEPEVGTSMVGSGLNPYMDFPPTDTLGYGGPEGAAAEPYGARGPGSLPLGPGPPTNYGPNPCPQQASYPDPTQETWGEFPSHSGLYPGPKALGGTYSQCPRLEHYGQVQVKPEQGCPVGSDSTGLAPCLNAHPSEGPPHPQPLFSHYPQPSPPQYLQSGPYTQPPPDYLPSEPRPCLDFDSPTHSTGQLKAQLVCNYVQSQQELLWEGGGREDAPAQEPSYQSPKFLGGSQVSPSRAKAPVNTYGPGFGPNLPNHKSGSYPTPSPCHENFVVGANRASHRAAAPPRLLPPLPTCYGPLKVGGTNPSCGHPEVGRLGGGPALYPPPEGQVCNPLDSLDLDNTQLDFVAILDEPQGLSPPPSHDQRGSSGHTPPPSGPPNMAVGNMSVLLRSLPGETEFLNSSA

Assay [1] has as its target Notch intracellular domain (NICD) of Notch1 (human (endogenous in TNBC cell lines)) (UniProt P46531). Kind of assay: co-IP; endogenous proteins, nuclear extracts of AA-TNBC cells (MDA-MB-468, HCC1806, HCC1569); immunoprecipitation with GLI1 antibody and blot for NICD; reciprocal immunoprecipitation with NICD antibody and blot for GLI1 (MDA-MB-468, HCC1569).
Assay [2] has as its target GLI1 (glioma-associated oncogene homolog 1), endogenous nuclear (human (endogenous in TNBC cell lines)) (UniProt P08151). Described as above.
Assay [3] deals with Flag-tagged GLI1 (hGLI1-Flag3x) (human) (UniProt P08151). As to the kind of experiment: co-IP; nuclear extracts of HCC1569 cells transfected with Flag-GLI1; immunoprecipitation with GLI1 antibody, immunoblot with NICD antibody; IgG control. For orientation: Immunoblotting shows a protein as a band on a membrane.

Results are given in words; binding and its absence hold for the method and conditions named. In cells and extracts the contact can be indirect. Some entries that bind do so weakly or less than the wild type.

Turning to “GLI1 (glioma-associated oncogene homolog 1), endogenous nuclear (from UniProt P08151 1-1106)”, in assay [1], the binding result was “binds”.

As for “Notch intracellular domain (NICD) of Notch1 (from UniProt P46531 1754-2555) (domain or fragment)”, the binding result in assay [2] and in assay [3] was “binds” in each case.
